The source of these data is the supplement of paper PMC4807443.

Structures are written as SMILES. Structures can show the parent of a compound that is named as a salt. The list shows a part of the results. The numbers are fractions of the control, whatever unit the source prints. Most entries show no effect beyond the scatter of the controls.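 MIN6 is a mouse insulinoma beta-cell line that stably carries a lentiviral reporter in which the Pdx1 and Ins1 promoters each drive a nucleus-targeted fluorescent protein; cells were counted by automated imaging with a Hoechst nuclear stain. In the screen, a drug was a possible hit when its Ins1 promoter readout lay beyond two median absolute deviations from the DMSO controls while Pdx1 activity stayed near normal.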

This test deals with MIN6. The test is described as follows: % Pdx1+ Ins1-low (RFP-only, immature) cells relative to DMSO control (fold of DMSO control); higher = more immature Pdx1+/Ins1-low cells. The note with it: 8.5 µM; 48 h; glucose 5 mM.
Consider `CCC(Cc1c(I)cc(I)c(N)c1I)C(=O)O` (stereo unspecified) [Iopanoic acid], for which the “% Pdx1+ Ins1-low” value turned out to be 0.846.
For `CCC(NC(C)C)C(O)c1ccc(O)c(O)c1` (stereo unspecified) [Isoetharine mesylate salt] the value was 0.978; for `CC(C)NC[C@H](O)COc1ccc(CC(N)=O)cc1` [(S)-(-)-Atenolol], 1.02.
The same measure for `C[C@@H]1[C@H](O)[C@@H](C)/C=C/C=C/C=C/C=C/C=C/C=C/C=C/[C@H](O[C@@H]2O[C@H](C)[C@@H](O)[C@H](N)[C@@H]2O)C[C@@H]2O[C@](O)(C[C@@H](O)C[C@@H](O)[C@H](O)CC[C@@H](O)C[C@@H](O)CC(=O)O[C@H]1C)C[C@H](O)[C@H]2C(=O)O` [Amphotericin B]: 1.26; for `CO[C@@]1(NC(=O)CSCC#N)C(=O)N2C(C(=O)O)=C(CSc3nnnn3C)CS[C@@H]21` [Cefmetazole sodium salt]: 0.801; for `C[C@@H]1NC(=O)NC1=O` [Methylhydantoin-5-(L)]: 0.538.
As for `CN1CCN(C2=Nc3cc(Cl)ccc3Nc3ccccc32)CC1` [Clozapine], the “% Pdx1+ Ins1-low” value worked out at 0.855.
For `NC12CC3CC(CC(C3)C1)C2` [Adamantamine fumarate], the “% Pdx1+ Ins1-low” value turned out to be 1.3.
Turning to `Clc1ccc(COC(Cn2ccnc2)c2ccc(Cl)cc2Cl)c(Cl)c1` (stereo unspecified) [Miconazole], the “% Pdx1+ Ins1-low” value was found to be 0.981.
Regarding `Cc1cc(=O)n(-c2ccccc2)n1C` [Antipyrine], the “% Pdx1+ Ins1-low” value was 0.825.
Regarding `Cn1c([N+](=O)[O-])cnc1COC(N)=O` [Ronidazole], the “% Pdx1+ Ins1-low” value amounted to 0.653.
Regarding `CN(C)[C@@H]1C(O)=C(C(N)=O)C(=O)[C@@]2(O)C(O)=C3C(=O)c4c(O)ccc(Cl)c4[C@@H](O)[C@H]3C[C@@H]12` [Demeclocycline hydrochloride], the “% Pdx1+ Ins1-low” value was 0.93.
As to `CC(Oc1ccccc1)C(=O)N[C@@H]1C(=O)N2[C@@H]1SC(C)(C)[C@@H]2C(=O)O` (stereo partly specified) [Phenethicillin potassium salt], the “% Pdx1+ Ins1-low” value is 1.08.
In the case of `N[C@@H](C(=O)N[C@@H]1C(=O)N2C(C(=O)O)=C(Cl)CS[C@H]12)c1ccccc1` [Cefaclor], the “% Pdx1+ Ins1-low” value came to 0.892.
For `OC(CCN1CCCCC1)(c1ccccc1)C1CCCCC1` (stereo unspecified) [Trihexyphenidyl-D,L Hydrochloride] the value was 0.831; for `N=C(N)N/N=C/c1c(Cl)cccc1Cl` [Guanabenz acetate], 1.12.
For `CN(C)CCOC(=O)COc1ccc(Cl)cc1` [Meclofenoxate hydrochloride], the “% Pdx1+ Ins1-low” value came out at 0.572.
Regarding `Nc1cc(-c2ccncc2)c[nH]c1=O` [Amrinone], the “% Pdx1+ Ins1-low” value was found to be 1.06.
The same measure for `c1ccc2c(c1)CCCc1cc(NCCN3CCOCC3)nnc1-2`: 1.05; for `CCC(=O)OCC(=O)[C@@]1(OC(=O)CC)[C@H](C)C[C@H]2[C@H]3[C@H]([C@@H](O)C[C@@]21C)[C@@]1(C)C=CC(=O)C=C1C[C@H]3Cl` [Alclometasone dipropionate]: 0.743; for `Cc1ccccc1N1C(=O)c2cc(S(N)(=O)=O)c(Cl)cc2NC1C` (stereo unspecified) [Metolazone]: 1.02.
The same measure for `C=CC1=C(C(=O)O)N2C(=O)[C@@H](NC(=O)/C(=N\OCC(=O)O)c3csc(N)n3)[C@H]2SC1` [Cefixime]: 0.725; for `OCCOCCN1CCN(C(c2ccccc2)c2ccc(Cl)cc2)CC1` (stereo unspecified) [Hydroxyzine dihydrochloride]: 0.792; for `CC(=O)Nc1ccc(O)cc1` [Acetaminophen]: 1.13.
`COc1ccc2[nH]c([S+]([O-])Cc3ncc(C)c(OC)c3C)nc2c1` (stereo unspecified) [Omeprazole]: the “% Pdx1+ Ins1-low” value amounted to 0.661.
Turning to `CCOC(=O)[C@H](CCc1ccccc1)N[C@@H](C)C(=O)N1CCC[C@H]1C(=O)O` [Enalapril maleate], the “% Pdx1+ Ins1-low” value is 1.23.
For `CO/N=C(\C(=O)N[C@@H]1C(=O)N2C(C(=O)O)=C(C[N+]3(C)CCCC3)CS[C@H]12)c1csc(N)n1` [Cefepime hydrochloride], the “% Pdx1+ Ins1-low” value came out at 0.714.
Regarding `CC[N+](CC)(CC)CCC(O)(c1ccccc1)C1CCCCC1` (stereo unspecified) [Tridihexethyl chloride], the “% Pdx1+ Ins1-low” value was 1.36.
Turning to `Cc1noc(NS(=O)(=O)c2ccc(N)cc2)c1C` [Sulfisoxazole], the “% Pdx1+ Ins1-low” value was determined as 0.492.
Regarding `CCc1cccc2c3c([nH]c12)C(CC)(CC(=O)O)OCC3` (stereo unspecified) [Etodolac], the “% Pdx1+ Ins1-low” value turned out to be 0.949.
Turning to `C[C@]12CC[C@@H]3c4ccc(O)cc4CC[C@H]3[C@@H]1C[C@@H](O)[C@@H]2O` [Estriol], the “% Pdx1+ Ins1-low” value came out at 0.818.
As for `CN(C)CCCO[C@@H]1[C@H]2OC(C)(C)O[C@H]2O[C@@H]1[C@H](O)CO` [Amiprilose hydrochloride], the “% Pdx1+ Ins1-low” value amounted to 1.34.
As for `CC1=C(CC(=O)O)c2cc(F)ccc2/C1=C\c1ccc([S+](C)[O-])cc1` (stereo unspecified) [Sulindac], the “% Pdx1+ Ins1-low” value is 1.03.
For `C=C1C[C@]23C[C@@]1(O)CC[C@H]2[C@@]12C=C[C@H](O)[C@@](C)(C(=O)O1)[C@H]2[C@@H]3C(=O)O` [Gibberellic acid] the value was 0.613; for `CC1CS(=O)(=O)CCN1/N=C/c1ccc([N+](=O)[O-])o1` (stereo unspecified) [Nifurtimox], 0.87; for `CN1[C@@H](CC(=O)c2ccccc2)CCC[C@H]1C[C@H](O)c1ccccc1` [Lobeline alpha (-) hydrochoride], 0.999.
For the compound `c1ccc2[nH]c(-c3cscn3)nc2c1` [Tiabendazole], the “% Pdx1+ Ins1-low” value is 0.925.
`CC(=O)N(CC(C)C(=O)O)c1c(I)cc(I)c(N)c1I` (stereo unspecified) [Iocetamic acid]: the “% Pdx1+ Ins1-low” value came to 1.36.
Regarding `CN(C)[C@@H]1C(O)=C(C(N)=O)C(=O)[C@@]2(O)C(O)=C3C(=O)c4c(O)ccc(Cl)c4[C@@](C)(O)[C@H]3C[C@@H]12` [Chlortetracycline hydrochloride], the “% Pdx1+ Ins1-low” value was determined as 0.971.
Turning to `C[C@]12CC[C@@H]3c4ccc(O)cc4CC[C@H]3[C@@H]1CCC2=O` [Estrone], the “% Pdx1+ Ins1-low” value came out at 1.02.
Turning to `CCOC(=O)C1=C[C@]2(CC)CCCN3CCc4c(n1c1ccccc41)[C@@H]32` [Vinpocetine], the “% Pdx1+ Ins1-low” value turned out to be 1.01.
For the compound `CNCCC(Oc1ccccc1OC)c1ccccc1` (stereo unspecified) [Nisoxetine hydrochloride], the “% Pdx1+ Ins1-low” value came out at 0.943.
For the compound `Cc1cccc(CN2CCN(C(c3ccccc3)c3ccc(Cl)cc3)CC2)c1` (stereo unspecified) [Meclozine dihydrochloride], the “% Pdx1+ Ins1-low” value turned out to be 0.918.
In the case of `COc1cnc(NS(=O)(=O)c2ccc(N)cc2)nc1` [Sulfameter], the “% Pdx1+ Ins1-low” value was found to be 0.702.
For `O=C(O)CCC(=O)Nc1ccc(S(=O)(=O)Nc2nccs2)cc1` [Succinylsulfathiazole], the “% Pdx1+ Ins1-low” value was 0.904.
As for `COC(=O)[C@@H]1[C@H]2C[C@H]3c4[nH]c5ccccc5c4CCN3C[C@@H]2CC[C@@H]1O` [Yohimbine hydrochloride], the “% Pdx1+ Ins1-low” value came out at 0.722.
